Assay in all cases: EMSA
Data set [1] concerns the target T1, GylR (Mycobacterium smegmatis) (UniProt A0R727).
T1 sequence (looked up): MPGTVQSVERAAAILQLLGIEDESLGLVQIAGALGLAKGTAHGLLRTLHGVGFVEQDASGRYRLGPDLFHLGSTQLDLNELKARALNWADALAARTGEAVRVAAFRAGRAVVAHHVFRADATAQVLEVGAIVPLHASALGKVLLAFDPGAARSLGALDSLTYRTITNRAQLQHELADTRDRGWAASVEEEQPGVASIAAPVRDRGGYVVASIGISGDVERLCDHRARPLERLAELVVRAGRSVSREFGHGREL
Particulars: 20 mM HEPES pH 7.6, 1 mM EDTA, 10 mM (NH4)2SO4, 1 mM DTT, 0.2% Tween 20, 30 mM KCl, 310 fmol DNA in 20 uL, 0/25/75 ng protein (Fig S7: 1 or 3 uM), 15 min, recombinant protein, residues 1-253, label: DIG (kit, stated as 5' end), probe letters rebuilt from the primers and the genome.

Data set [2] concerns the target T2, MSMEG_2386 (Mycobacterium smegmatis) (UniProt A0QUY8).
T2 sequence (looked up, limits assumed): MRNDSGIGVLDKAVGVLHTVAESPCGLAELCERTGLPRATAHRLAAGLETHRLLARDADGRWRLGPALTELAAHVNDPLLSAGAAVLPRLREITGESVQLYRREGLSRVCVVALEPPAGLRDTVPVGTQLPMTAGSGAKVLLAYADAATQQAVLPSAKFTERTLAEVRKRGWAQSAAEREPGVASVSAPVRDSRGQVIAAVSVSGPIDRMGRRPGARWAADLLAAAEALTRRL
The following applies: 20 mM HEPES pH 7.6, 1 mM EDTA, 10 mM (NH4)2SO4, 1 mM DTT, 0.2% Tween 20, 30 mM KCl; 310 fmol DNA in 20 uL, 0/25/75 ng protein (Fig S7: 1 or 3 uM); 15 min; recombinant protein; label: DIG (kit, stated as 5' end); probe letters rebuilt from the primers and the genome.

In data set [3] the target is T3, MSMEG_2600 (Mycobacterium smegmatis) (UniProt A0QVJ9).
T3 sequence (looked up, limits assumed): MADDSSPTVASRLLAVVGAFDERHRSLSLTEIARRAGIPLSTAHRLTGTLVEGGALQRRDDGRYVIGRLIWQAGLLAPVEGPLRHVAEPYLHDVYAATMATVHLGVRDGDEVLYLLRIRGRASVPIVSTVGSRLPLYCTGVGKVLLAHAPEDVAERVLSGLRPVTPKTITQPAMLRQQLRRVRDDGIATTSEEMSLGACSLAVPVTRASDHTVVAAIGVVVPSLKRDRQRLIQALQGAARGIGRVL
The following applies: 20 mM HEPES pH 7.6, 1 mM EDTA, 10 mM (NH4)2SO4, 1 mM DTT, 0.2% Tween 20, 30 mM KCl; 310 fmol DNA in 20 uL, 0/25/75 ng protein (Fig S7: 1 or 3 uM); 15 min; recombinant protein; label: DIG (kit, stated as 5' end); probe letters rebuilt from the primers and the genome.

Data set [4] has as its target T4, MSMEG_0916 (Mycobacterium smegmatis) (UniProt A0QQY1).
T4 sequence (looked up, limits assumed): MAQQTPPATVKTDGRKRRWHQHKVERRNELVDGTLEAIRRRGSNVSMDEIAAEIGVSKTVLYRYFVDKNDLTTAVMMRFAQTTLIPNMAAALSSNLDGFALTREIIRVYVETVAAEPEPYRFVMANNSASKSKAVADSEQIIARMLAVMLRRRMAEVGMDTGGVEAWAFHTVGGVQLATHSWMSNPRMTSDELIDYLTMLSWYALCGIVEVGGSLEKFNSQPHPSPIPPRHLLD
Particulars: 20 mM HEPES pH 7.6, 1 mM EDTA, 10 mM (NH4)2SO4, 1 mM DTT, 0.2% Tween 20, 30 mM KCl; 310 fmol DNA in 20 uL, 0/25/75 ng protein (Fig S7: 1 or 3 uM); 15 min; recombinant protein; label: DIG (kit, stated as 5' end); probe letters rebuilt from the primers and the genome.

For data set [5], the target named is T5, MSMEG_3822 (Mycobacterium smegmatis) (UniProt A0QYX6).
T5 sequence (looked up, limits assumed): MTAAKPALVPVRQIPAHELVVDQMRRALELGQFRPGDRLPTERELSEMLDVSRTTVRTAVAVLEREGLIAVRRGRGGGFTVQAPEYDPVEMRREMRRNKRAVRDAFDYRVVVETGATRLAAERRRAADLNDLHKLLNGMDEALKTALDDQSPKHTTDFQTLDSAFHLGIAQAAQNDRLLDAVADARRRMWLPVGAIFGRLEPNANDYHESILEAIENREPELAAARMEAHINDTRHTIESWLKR
The following applies: 20 mM HEPES pH 7.6, 1 mM EDTA, 10 mM (NH4)2SO4, 1 mM DTT, 0.2% Tween 20, 30 mM KCl; 310 fmol DNA in 20 uL, 0/25/75 ng protein (Fig S7: 1 or 3 uM); 15 min; recombinant protein; label: DIG (kit, stated as 5' end); probe letters rebuilt from the primers and the genome.

Data set [6] deals with T6, Crp1 (Mycobacterium smegmatis) (UniProt A0QPW2).
T6 sequence (looked up): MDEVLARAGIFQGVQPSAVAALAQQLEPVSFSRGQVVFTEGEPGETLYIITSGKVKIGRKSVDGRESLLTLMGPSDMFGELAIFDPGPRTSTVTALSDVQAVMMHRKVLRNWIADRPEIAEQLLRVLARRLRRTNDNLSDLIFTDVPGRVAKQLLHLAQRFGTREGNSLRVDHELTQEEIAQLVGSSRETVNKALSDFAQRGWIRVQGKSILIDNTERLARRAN
Particulars: 20 mM HEPES pH 7.6, 1 mM EDTA, 10 mM (NH4)2SO4, 1 mM DTT, 0.2% Tween 20, 30 mM KCl, 310 fmol DNA in 20 uL, 0/25/75 ng protein (Fig S7: 1 or 3 uM), 15 min, recombinant protein, residues 1-224, label: DIG (kit, stated as 5' end), probe letters rebuilt from the primers and the genome.

A negative result means that nothing was seen under these conditions. Protein sequences can lack the tags named with them. For some of these results: The exact form of at least one protein or probe is not confirmed. For some of these results: The comparison behind a weaker result is the experiment's own reference, which may not be listed here.

For the sequence “CACCCCGAACAGGATGAGGATGCCGGCGAACTCGGCGCAGAGTTCTCCGACGAGTGTTCGTCGTGACATGTTGGTCTCCTTGGCTCTTCGAACCGCATGTGTTGTGCGTCATACGAGGCGTGCGTTGTGAACCTAGAAGCCAGAGGTCGGCCGGGCATCACCCGTCGTTCGGCATCGCCGAACACGGCCCCGGTCGACAATGCCGACCCTCGGGGTCGACATGGTCGAACGATTTGGTGATCCTGAAACTTGTGCCAGGCACTGTGCAGTCCGTGGAACGGGCCGCGGCGATACTGCAGCTAC (double strand) [PglpFKD (glpFKD promoter)]”, the binding result in data set [1] (50 mM glycerol-3-phosphate) is on record as “binds more weakly”; in data set [1] (no G3P) it was “binds”.
As for “GACCGGCGAGATGTCTGGAAGTTCGTCGATCGCATTCTGACCGGCACTGTGACCGTTGCTGGCCATTCCATCCTCCCGCTCGGAGTTTCGGCGACGCGGCAAACATATCCTCGCCTATGCGCGGATGCCTATCGCTTTCGCGCAATTCCTGTCCGGATTGCGCAAAGATAGGTGCTCTCATGCGCGTCTGACGATCAGGAGGGTTGCGGTGCGGGACCGAAATCCGTTATCGCTGACCAAAGTTAGGCTTTCCTTAGCTCGCGTATCAGGCCGGGCGTTGCTGGGGGTTCCCGGATGTCACGGCTGACCCGGCTCGGGTTCATCGACATCCGCCGCACCAGCGATCCCGTGCGGCGAAAGGTGCGCAGCCGCGGCGTCCCGCCCGCGCTGGCCGATCACGAGATCTTCTACACCGAGGACGTCCGCGAGGCCGCGCGTCTGGTCG (double strand) [Phuc (huc promoter)]”, the binding result in data set [2], in data set [3], in data set [4], in data set [1] (50 mM glycerol-3-phosphate), in data set [1] (no G3P) and in data set [5] was “no binding” throughout. Also, the binding result in data set [6] (50 mM cAMP) and in data set [6] (no cAMP) was “no binding” throughout.

Source of the values: paper PMC13098282.
